PubChem BioAssay AID1671195 | Yale University – 2021

Aim: 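Knockdowns that increase or decrease uptake of fluorescent LDL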 (primary screen)
Cells: human Huh7 hepatoma cells
Knock-down reagent: siRNA pool against human genes, 18 nM
Duration: about 2 to 2.5 days of knockdown, then 8 h LDL uptake
Challenge: DiI-labelled LDL at 30 µg/ml for 8 h, in lipoprotein-deficient serum medium
Measurement: 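Per-cell DiI-LDL intensity by automated imaging; well means scaled to the plate median and given as a robust z-score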
Direction: robust z-score: higher = more LDL uptake after knockdown
Rule for the call: 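Active when two or more replicates show a robust z-score above 2 or below -2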
The deposit covers about 22,000 reagents; shown is a random part of them. Of all reagents, about 1,510 (6.9%) got an active call. 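Active includes knockdowns raising or lowering LDL uptake; positive z-scores mean more uptake, negative mean less.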

gene symbol | robust z-score, replicate 1 | robust z-score, replicate 2 | robust z-score, replicate 3 | Outcome
ASB10 | 0.00219 | -0.251 | 0.373 | inactive
NANOG | -0.933 | -0.771 | -0.355 | inactive
ITPRIPL1 | -0.784 | 0.216 | -1.14 | inactive
XKR4 | 0.255 | -0.203 | -0.0716 | inactive
OXT | 0.181 | -0.287 | 0.26 | inactive
LSM6 | -0.743 | -0.517 | -0.412 | inactive
REX1BD | -0.537 | -1.57 | 0.824 | inactive
IQCF6 | 0.248 | -0.444 | -0.483 | inactive
ARHGAP32 | -0.562 | 0.00604 | -0.344 | inactive
HERC2P9 | -0.181 | -0.00506 | -0.5 | inactive
KIF13A | 0.514 | 0.684 | 0.525 | inactive
ST3GAL4 | 0.716 | 0.12 | -1.9 | inactive
MORC2-AS1 | -0.678 | -0.997 | -0.22 | inactive
USP13 | 0.0245 | -0.451 | -0.0196 | inactive
LRCH3 | 1.07 | 0.29 | 0.504 | inactive
SPMAP2 | 0.243 | -0.591 | 0.00585 | inactive
PTGS2 | -1.33 | -0.662 | -0.999 | inactive
SCAP | -1.47 | -0.95 | -1.22 | inactive
LOC388689 (retired record) | 1.97 | 1.07 | 0.874 | inactive
TXLNA | -0.995 | -1.07 | -1.03 | inactive
RABL3 | 1.71 | 1.57 | 0.805 | inactive
CEACAM8 | -0.768 | -0.77 | -0.275 | inactive
QSOX2 | 0.243 | -0.921 | 0.105 | inactive
RFX8 | -0.851 | -0.689 | -0.375 | inactive
SOD1 | 4.37 | 4.69 | 3.65 | active
ENPEP | 1.19 | 1.12 | 0.785 | inactive
LOC401061 (retired record) | -0.25 | -0.02 | -0.185 | inactive
RTN4IP1 | 0.811 | 0.558 | 0.168 | inactive
CHRNA4 | 0.0229 | 0.299 | 0.478 | inactive
LOC389834 | 1.16 | 1.12 | 0.55 | inactive
AATBC | 0.417 | 0.224 | -0.000559 | inactive
INSC | 0.287 | 0.313 | 0.513 | inactive
RB1CC1 | -0.232 | 0.0768 | 0.248 | inactive
ANKRD20A5P | -0.194 | -0.157 | -0.363 | inactive
FCRL5 | 2.73 | 2.54 | 1.84 | active
SPHKAP | 0.217 | -0.118 | 0.184 | inactive
LOC389248 (retired record) | 0.668 | 1.37 | 0.559 | inactive
LOC441042 (retired record) | -0.458 | -1.25 | -0.778 | inactive
PSMG3-AS1 | 0.0616 | -1.59 | -1 | inactive
LRRC38 | 0.822 | 0.247 | -0.406 | inactive
CCL20 | 1.5 | 0.16 | 0.502 | inactive
PYCARD | -0.533 | 0.46 | -0.596 | inactive
MMACHC | 1.38 | -1.19 | 1.22 | inactive
DAPK3 | -0.254 | -0.133 | 0.46 | inactive
CCRL2 | -0.363 | -0.409 | -0.469 | inactive
CADM1 | -1.91 | -0.809 | -0.232 | inactive
